Measured values: PMC5404317
These are yes or no findings as the source states them, for the method shown. Binding seen in cells or lysates may run through a third protein. For part of these data: Binding calls can cover weak binding; strength is not graded here.

Sequences of proteins named here, by UniProt entry; tags and fusion partners are left off. A change or cut given only in a name is not applied to a line headed by its entry.
UniProt Q9BXM7: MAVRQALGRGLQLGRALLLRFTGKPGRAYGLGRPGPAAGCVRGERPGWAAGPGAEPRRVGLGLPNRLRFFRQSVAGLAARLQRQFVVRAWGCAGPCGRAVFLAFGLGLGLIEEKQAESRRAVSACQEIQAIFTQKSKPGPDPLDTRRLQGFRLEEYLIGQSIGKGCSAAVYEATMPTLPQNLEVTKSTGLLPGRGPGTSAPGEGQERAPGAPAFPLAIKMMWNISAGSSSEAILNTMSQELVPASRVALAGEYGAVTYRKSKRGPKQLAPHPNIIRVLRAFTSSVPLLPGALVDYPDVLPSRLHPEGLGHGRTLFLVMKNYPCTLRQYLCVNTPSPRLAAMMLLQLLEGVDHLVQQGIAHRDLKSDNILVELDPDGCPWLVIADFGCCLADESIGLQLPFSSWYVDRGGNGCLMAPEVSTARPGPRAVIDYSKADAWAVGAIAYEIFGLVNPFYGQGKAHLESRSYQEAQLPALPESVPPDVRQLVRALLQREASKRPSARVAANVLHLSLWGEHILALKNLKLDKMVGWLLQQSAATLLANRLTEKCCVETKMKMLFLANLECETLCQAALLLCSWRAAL

How the values were obtained:
[1] = biological target: PINK1-V5 p.L347P (V5-6xHis-tagged) (human) (UniProt Q9BXM7); assay: co-IP; PINK1-V5 precipitated with mouse anti-V5-agarose beads overnight at 4 °C from total lysates of transfected HeLa cells, left untreated or treated with CCCP for 2 h; co-IP buffer 50 mM HEPES pH 7.5, 150 mM NaCl, 10 mM KCl, 1.5 mM MgCl2, 1 mM EDTA, 0.5 mM EGTA, 10% glycerol, 0.2% NP-40; blots for V5, HSP90, CDC37, TOM40
[2] = biological target: PINK1-V5 WT (V5-6xHis-tagged PINK1 wild type) (human) (UniProt Q9BXM7); assay: as above
[3] = biological target: PINK1-V5 WT (V5-6xHis-tagged PINK1 wild type) (human) (UniProt Q9BXM7); assay: co-IP; as a1, the samples of HeLa cells left untreated (no CCCP) only

binding [1]: no binding
binding [2]: binds
B1: TOM40 (protein, UniProt O96008 1-361)
chain: MGNVLAASSPPAGPPPPPAPALVGLPPPPPSPPGFTLPPLGGSLGAGTSTSRSSERTPGAATASASGAAEDGACGCLPNPGTFEECHRKCKELFPIQMEGVKLTVNKGLSNHFQVNHTVALSTIGESNYHFGVTYVGTKQLSPTEAFPVLVGDMDNSGSLNAQVIHQLGPGLRSKMAIQTQQSKFVNWQVDGEYRGSDFTAAVTLGNPDVLVGSGILVAHYLQSITPCLALGGELVYHRRPGEEGTVMSLAGKYTLNNWLATVTLGQAGMHATYYHKASDQLQVGVEFEASTRMQDTSVSFGYQLDLPKANLLFKGSVDSNWIVGATLEKKLPPLPLTLALGAFLNHRKNKFQCGFGLTIG
binding [3]: no binding (only cells without CCCP treatment)
